Measurements taken from the supplement of paper PMC10849652.
This is one part of the list.

Chains of the proteins cited; added tags and fusions are not shown. Lines headed by an entry give the natural chain unless they say otherwise; changes in a name come on top.
UniProt Q13867: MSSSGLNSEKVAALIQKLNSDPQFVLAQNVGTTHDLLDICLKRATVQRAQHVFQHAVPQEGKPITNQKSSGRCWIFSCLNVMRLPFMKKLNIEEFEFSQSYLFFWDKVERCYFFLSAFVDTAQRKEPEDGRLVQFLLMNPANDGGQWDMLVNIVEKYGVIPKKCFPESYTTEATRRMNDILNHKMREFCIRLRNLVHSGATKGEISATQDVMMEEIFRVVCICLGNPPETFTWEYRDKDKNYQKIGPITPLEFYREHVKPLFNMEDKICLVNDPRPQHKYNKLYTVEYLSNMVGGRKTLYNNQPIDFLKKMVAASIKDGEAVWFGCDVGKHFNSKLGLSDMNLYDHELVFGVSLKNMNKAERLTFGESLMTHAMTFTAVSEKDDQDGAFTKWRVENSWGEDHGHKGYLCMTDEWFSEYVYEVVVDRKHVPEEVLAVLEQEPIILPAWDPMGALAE
UniProt O60512: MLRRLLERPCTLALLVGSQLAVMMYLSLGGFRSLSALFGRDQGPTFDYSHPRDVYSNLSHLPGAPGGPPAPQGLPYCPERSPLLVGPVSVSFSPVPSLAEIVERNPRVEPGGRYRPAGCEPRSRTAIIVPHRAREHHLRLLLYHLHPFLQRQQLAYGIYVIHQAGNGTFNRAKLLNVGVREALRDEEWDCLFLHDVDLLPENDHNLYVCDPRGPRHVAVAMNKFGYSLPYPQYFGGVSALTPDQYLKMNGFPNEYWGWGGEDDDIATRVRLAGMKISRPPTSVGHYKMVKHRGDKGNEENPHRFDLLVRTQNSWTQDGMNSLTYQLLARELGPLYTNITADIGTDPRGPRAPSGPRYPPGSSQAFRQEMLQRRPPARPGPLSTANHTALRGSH
UniProt P53004: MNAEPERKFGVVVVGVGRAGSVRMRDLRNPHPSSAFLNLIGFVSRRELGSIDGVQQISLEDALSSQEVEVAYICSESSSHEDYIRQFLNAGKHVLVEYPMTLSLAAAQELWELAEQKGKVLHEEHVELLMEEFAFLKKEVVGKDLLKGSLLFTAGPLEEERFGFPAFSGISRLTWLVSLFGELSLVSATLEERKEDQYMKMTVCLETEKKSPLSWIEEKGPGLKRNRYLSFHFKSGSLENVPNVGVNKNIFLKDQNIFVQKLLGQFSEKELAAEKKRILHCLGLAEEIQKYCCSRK
UniProt Q9Y276: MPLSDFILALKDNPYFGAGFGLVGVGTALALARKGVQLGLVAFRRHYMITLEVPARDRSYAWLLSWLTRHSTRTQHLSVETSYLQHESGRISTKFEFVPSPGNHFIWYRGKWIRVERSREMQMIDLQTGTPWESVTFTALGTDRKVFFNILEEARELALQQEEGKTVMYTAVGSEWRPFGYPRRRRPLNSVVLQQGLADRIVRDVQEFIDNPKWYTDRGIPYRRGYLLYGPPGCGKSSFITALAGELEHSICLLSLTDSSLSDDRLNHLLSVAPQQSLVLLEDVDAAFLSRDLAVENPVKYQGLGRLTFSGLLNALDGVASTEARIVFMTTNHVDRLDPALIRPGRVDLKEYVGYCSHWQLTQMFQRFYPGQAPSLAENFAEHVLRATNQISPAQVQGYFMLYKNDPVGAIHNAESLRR
UniProt Q8TD16, whole entry, looked up: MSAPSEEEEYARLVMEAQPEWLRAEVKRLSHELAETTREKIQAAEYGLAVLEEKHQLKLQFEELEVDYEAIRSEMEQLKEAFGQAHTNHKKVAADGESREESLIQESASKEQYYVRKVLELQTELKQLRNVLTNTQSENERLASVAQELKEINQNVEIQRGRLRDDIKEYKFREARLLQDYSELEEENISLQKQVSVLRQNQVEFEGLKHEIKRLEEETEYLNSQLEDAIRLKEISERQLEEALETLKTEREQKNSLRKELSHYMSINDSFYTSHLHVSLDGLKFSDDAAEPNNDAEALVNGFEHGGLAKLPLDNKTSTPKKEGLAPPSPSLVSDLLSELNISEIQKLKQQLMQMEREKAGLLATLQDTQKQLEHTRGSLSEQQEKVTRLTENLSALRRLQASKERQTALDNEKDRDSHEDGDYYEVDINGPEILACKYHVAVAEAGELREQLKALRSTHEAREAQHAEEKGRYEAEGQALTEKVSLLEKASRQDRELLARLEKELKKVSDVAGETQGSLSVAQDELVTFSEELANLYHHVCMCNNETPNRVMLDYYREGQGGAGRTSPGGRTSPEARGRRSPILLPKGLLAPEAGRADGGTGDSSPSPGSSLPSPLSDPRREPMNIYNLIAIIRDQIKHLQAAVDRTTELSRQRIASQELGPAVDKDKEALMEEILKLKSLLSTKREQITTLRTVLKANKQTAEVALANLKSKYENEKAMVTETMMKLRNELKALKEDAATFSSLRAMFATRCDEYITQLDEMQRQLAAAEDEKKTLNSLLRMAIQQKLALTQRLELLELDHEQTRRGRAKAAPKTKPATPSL
UniProt O95861: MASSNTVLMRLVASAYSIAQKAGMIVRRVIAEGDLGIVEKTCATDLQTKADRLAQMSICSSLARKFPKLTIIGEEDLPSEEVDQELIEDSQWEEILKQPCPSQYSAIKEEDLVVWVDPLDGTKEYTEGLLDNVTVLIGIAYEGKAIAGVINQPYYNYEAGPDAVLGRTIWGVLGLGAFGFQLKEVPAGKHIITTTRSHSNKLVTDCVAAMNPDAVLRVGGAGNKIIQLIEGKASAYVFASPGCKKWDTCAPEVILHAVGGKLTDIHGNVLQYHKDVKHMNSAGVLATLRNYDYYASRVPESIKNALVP
UniProt P46736, whole entry, looked up: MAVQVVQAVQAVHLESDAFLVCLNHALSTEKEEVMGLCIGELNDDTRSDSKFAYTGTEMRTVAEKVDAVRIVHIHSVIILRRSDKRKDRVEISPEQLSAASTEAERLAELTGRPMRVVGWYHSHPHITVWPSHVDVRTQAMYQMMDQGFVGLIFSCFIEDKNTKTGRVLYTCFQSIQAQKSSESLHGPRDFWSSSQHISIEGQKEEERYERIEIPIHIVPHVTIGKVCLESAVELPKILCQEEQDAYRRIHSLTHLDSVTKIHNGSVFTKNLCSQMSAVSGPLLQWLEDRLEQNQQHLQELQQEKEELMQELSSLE
UniProt O75531: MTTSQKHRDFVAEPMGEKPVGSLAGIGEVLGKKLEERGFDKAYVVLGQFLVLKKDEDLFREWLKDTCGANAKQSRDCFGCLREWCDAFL
UniProt Q99933: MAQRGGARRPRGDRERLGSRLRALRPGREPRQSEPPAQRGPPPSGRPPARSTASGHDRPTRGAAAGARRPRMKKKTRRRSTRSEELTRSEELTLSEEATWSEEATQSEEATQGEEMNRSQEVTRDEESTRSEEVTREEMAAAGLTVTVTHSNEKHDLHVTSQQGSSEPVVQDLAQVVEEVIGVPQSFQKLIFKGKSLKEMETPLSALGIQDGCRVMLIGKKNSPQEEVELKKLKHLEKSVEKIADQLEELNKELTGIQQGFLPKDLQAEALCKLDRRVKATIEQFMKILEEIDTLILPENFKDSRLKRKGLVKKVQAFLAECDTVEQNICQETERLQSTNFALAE
UniProt Q96GS4: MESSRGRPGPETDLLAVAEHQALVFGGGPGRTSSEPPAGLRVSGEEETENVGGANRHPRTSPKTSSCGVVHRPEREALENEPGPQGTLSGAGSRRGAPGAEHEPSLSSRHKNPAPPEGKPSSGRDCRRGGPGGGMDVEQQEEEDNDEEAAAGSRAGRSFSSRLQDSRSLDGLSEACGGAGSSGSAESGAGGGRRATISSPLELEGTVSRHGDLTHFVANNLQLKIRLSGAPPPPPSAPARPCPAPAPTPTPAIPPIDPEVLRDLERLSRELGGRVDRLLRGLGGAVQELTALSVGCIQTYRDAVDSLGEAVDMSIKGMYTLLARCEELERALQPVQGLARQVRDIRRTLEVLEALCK
UniProt P54687: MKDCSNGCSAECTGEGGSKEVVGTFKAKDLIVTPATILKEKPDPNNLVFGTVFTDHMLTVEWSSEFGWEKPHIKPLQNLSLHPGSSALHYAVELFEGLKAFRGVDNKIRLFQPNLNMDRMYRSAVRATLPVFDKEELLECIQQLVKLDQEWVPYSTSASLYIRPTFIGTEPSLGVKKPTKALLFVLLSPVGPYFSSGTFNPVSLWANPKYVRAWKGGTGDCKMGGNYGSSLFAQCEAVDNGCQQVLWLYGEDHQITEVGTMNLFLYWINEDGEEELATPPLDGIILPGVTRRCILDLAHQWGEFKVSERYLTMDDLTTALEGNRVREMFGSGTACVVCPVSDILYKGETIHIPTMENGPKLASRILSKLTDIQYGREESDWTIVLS
UniProt Q9NY97: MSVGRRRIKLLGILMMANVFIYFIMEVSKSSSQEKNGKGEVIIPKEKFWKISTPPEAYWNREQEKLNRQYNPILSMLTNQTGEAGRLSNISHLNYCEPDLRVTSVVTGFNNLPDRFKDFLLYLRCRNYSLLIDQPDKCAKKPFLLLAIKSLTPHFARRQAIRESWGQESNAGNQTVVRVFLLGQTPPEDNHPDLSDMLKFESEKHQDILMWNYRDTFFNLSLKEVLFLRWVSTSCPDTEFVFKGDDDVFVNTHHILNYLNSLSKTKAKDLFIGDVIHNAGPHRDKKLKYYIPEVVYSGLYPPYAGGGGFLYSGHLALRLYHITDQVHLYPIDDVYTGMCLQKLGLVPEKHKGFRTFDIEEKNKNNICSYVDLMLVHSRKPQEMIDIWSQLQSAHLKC
UniProt Q13490, whole entry, looked up: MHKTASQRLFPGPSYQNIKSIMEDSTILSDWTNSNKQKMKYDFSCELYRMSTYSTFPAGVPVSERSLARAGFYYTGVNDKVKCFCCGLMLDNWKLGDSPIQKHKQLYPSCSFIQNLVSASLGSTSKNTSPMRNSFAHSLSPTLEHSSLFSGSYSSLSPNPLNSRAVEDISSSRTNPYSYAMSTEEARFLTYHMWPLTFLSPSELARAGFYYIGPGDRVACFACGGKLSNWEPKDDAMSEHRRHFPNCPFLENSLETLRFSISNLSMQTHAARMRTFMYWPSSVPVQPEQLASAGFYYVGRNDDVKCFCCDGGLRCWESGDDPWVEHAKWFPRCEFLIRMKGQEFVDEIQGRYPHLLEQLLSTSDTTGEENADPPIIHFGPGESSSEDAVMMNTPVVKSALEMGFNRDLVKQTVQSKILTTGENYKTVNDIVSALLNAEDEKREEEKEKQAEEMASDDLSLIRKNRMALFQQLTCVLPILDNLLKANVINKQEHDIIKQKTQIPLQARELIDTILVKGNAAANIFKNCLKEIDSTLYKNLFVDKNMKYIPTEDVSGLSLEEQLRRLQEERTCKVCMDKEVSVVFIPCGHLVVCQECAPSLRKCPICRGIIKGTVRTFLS
UniProt Q14692: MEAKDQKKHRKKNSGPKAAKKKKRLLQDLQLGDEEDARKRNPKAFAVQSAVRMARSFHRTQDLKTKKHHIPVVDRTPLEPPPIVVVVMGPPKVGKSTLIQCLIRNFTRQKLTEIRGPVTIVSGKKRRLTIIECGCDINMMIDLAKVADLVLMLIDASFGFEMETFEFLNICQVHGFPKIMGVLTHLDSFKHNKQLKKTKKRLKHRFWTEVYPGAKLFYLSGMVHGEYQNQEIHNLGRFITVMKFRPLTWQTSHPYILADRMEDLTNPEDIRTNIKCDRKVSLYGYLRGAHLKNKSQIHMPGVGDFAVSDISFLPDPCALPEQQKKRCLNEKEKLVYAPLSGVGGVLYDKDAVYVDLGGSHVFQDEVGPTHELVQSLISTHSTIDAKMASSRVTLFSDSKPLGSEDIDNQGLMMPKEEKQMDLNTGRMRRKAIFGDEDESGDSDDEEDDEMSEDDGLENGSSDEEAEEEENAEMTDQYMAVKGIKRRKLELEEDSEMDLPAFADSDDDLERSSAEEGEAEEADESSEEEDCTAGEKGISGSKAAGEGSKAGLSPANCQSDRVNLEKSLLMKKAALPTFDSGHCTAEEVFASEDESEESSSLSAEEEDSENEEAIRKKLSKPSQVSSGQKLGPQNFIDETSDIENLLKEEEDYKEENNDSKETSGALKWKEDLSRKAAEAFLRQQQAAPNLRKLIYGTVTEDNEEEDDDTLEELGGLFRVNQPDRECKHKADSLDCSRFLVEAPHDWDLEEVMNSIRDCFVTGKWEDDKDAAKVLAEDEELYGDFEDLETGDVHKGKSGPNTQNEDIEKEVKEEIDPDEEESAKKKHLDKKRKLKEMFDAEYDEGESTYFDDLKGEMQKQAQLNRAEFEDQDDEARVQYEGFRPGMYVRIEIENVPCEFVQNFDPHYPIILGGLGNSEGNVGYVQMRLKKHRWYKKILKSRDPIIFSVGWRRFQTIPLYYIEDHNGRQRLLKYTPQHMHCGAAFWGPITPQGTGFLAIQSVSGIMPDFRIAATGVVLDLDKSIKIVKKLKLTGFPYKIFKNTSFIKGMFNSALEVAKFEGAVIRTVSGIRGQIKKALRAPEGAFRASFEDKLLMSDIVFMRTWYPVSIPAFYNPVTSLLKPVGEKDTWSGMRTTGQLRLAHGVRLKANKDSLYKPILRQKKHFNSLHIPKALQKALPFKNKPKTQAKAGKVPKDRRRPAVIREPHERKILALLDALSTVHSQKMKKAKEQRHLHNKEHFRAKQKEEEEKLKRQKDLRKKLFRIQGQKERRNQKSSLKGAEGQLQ

Key:
Test in all cases: log2 fold change, soluble protein after heating vs DMSO (PISA); higher = thermal stabilisation; K562 cells, 10 uM, 30 min; active = over 0.2 and 3.5 SD of the protein, either way, in both replicates (recomputed)
[1] = compound: CC[C@@H]1C(=O)N(C)c2cnc(Nc3ccc(C(=O)NC4CCN(C)CC4)cc3OC)nc2N1C1CCCC1
Summary of the method: (§1)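 K562 cells at 2×10^6 cells/mL were exposed to 10 μM compound for 30 min, then aliquots were heated for 3 min across 48°C-58°C, pooled, and extracted in PBS containing 0.5% NP-40 at 4°C. The supernatant after 21,000xg for 90 min was taken as soluble protein and measured by TMTpro 16plex LC-MS/MS with channel sums equalised. Thermal stability is reported relative to control samples, with values from duplicates. Fold changes are given on a log2 scale.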

volasertib = compound: CC[C@@H]1C(=O)N(C)c2cnc(Nc3ccc(C(=O)N[C@H]4CC[C@H](N5CCN(CC6CC6)CC5)CC4)cc3OC)nc2N1C(C)C [volasertib]
Summary of the method: as §1

[2] = compound: CC[C@H](C)N1C=C(C2=C(C=C(C=C21)C3=CN=C(C=C3)N4CCNCC4)C(=O)NCC5=C(C=C(NC5=O)C)C)C
Summary of the method: as §1

epoxomicin = compound: CC[C@H](C)[C@@H](C(=O)N[C@@H]([C@@H](C)O)C(=O)N[C@@H](CC(C)C)C(=O)[C@]1(CO1)C)NC(=O)[C@H]([C@@H](C)CC)N(C)C(=O)C [epoxomicin]
Summary of the method: as §1

[3] = compound: CCn1c(C(=O)N(C2CC2)C2CC2)cc2c3c(ncn3C)c(Nc3cc(C)n(C)n3)nc21
Summary of the method: as §1

[4] = compound: CCn1cc(-c2ccnc3[nH]c(-c4cccc(CN(C)C)c4)cc23)c(-c2ccc(NC(=O)N(C)C)cc2)n1
Summary of the method: as §1

[5] = compound: CN(C)CC(=O)Nc1ccc2[nH]c(=O)c3ccccc3c2c1
Summary of the method: as §1

rosiglitazone = compound: CN(CCOC1=CC=C(C=C1)C[C@H]2C(=O)NC(=O)S2)C3=CC=CC=N3 (racemic) [rosiglitazone]
Summary of the method: as §1

[6] = compound: CN1C2=C(C3=C1C(=O)N(N=C3)CC4=CC(=CC=C4)N)SC(=C2)S(=O)C
Summary of the method: as §1

[7] = compound: CN1CCC(CNc2ccc3ncc(-c4cccc(OC(F)(F)F)c4)n3n2)CC1
Summary of the method: as §1

saracatinib = compound: CN1CCN(CCOc2cc(OC3CCOCC3)c3c(Nc4c(Cl)ccc5c4OCO5)ncnc3c2)CC1 [saracatinib]
Summary of the method: as §1

sotrastaurin = compound: CN1CCN(c2nc(C3=C(c4c[nH]c5ccccc45)C(=O)NC3=O)c3ccccc3n2)CC1 [sotrastaurin]
Summary of the method: as §1

alvocidib = compound: CN1CC[C@H](c2c(O)cc(O)c3c(=O)cc(-c4ccccc4Cl)oc23)[C@H](O)C1 [alvocidib]
Summary of the method: as §1

Tubastatin A = compound: CN1CCc2c(c3ccccc3n2Cc2ccc(C(=O)NO)cc2)C1 [Tubastatin A]
Summary of the method: as §1

[8] = compound: CNC(=O)C1=CC=CC=C1NC2=NC(=NC=C2Cl)NC3=C(C=C(C=C3)N4CCOCC4)OC
Summary of the method: as §1

defactinib = compound: CNC(=O)c1ccc(Nc2ncc(C(F)(F)F)c(NCc3nccnc3N(C)S(C)(=O)=O)n2)cc1 [defactinib]
Summary of the method: as §1

rucaparib = compound: CNCc1ccc(-c2[nH]c3cc(F)cc4c3c2CCNC4=O)cc1 [rucaparib]
Summary of the method: as §1

[9] = compound: CNc1nc(-c2ccc3c(N)n[nH]c3c2)cc(N2C[C@@H](C(=O)NC3CCCCC3)CC[C@H]2C)n1
Summary of the method: as §1

encorafenib = compound: COC(=O)N[C@@H](C)CNc1nccc(-c2cn(C(C)C)nc2-c2cc(Cl)cc(NS(C)(=O)=O)c2F)n1 [encorafenib]
Summary of the method: as §1

[10] = compound: COC(=O)[C@H](CCSC)NC(=O)C1=C(C=C(C=C1)NC[C@H](CS)N)C2=CC=CC=C2
Summary of the method: as §1

Measured: log2 fold change

BLMH (UniProt Q13867)
inactive: [1] 0.019 | volasertib 0.033 | [2] 0.133 | epoxomicin 0.065 | [3] 0.001 | [4] 0.011 | [5] 0.051 | rosiglitazone -0.046 | [6] -0.031 | [7] 0.011 | saracatinib -0.029 | sotrastaurin 0.022 | alvocidib -0.018 | Tubastatin A -0.008 | [8] 0.028 | defactinib -0.031 | rucaparib -0.041 | [9] -0.076 | encorafenib 0.006 | [10] 0.081

B4GALT3 (UniProt O60512)
inactive: [1] -0.023 | volasertib -0.067 | [2] 0.134 | epoxomicin -0.056 | [3] 0.124 | [4] 0.033 | [5] -0.02 | rosiglitazone 0.092 | [6] -0.03 | [7] 0.01 | saracatinib 0.201 | sotrastaurin -0.117 | alvocidib -0.086 | Tubastatin A -0.081 | [8] 0.066 | defactinib -0.031 | rucaparib 0.005 | [9] -0.086 | encorafenib 0.007 | [10] -0.01

BNIP2 (UniProt J3KN59)
inactive: [1] -0.081 | volasertib -0.438 | [2] -0.079 | epoxomicin -0.068 | [3] -0.04 | [4] 0.082 | [5] 0.003 | rosiglitazone 0.002 | [6] -0.108 | [7] -0.192 | saracatinib 0.033 | sotrastaurin 0.042 | alvocidib -0.174 | Tubastatin A -0.04 | [8] -0.055 | defactinib -0.025 | rucaparib 0.033 | [9] -0.101 | encorafenib -0.008 | [10] 0.014

BLVRA (UniProt P53004)
inactive: [1] 0.014 | volasertib 0.029 | [2] 0.026 | epoxomicin 0.018 | [3] 0.032 | [4] -0.111 | [5] 0.007 | rosiglitazone 0.047 | [6] -0.092 | [7] -0.141 | saracatinib -0.02 | sotrastaurin 0.071 | alvocidib -0.064 | Tubastatin A -0.039 | [8] -0.039 | defactinib -0.004 | rucaparib -0.035 | [9] -0.003 | encorafenib 0.003 | [10] 0.006

BOD1L1 (UniProt Q8NFC6)
inactive: [1] 0.101 | volasertib 0.082 | [2] 0.038 | epoxomicin -0.061 | [3] -0.008 | [4] 0.055 | [5] -0.04 | rosiglitazone 0.01 | [6] 0.081 | [7] 0.045 | saracatinib -0.006 | sotrastaurin -0.05 | alvocidib 0.039 | Tubastatin A 0.003 | [8] -0.029 | defactinib 0.013 | rucaparib 0.039 | [9] -0.021 | encorafenib 0.019 | [10] 0.03

2 entries drawn at random from the list so far, as already listed:
BLMH (UniProt Q13867)
inactive: [1] 0.019 | volasertib 0.033 | [2] 0.133 | epoxomicin 0.065 | [3] 0.001 | [4] 0.011 | [5] 0.051 | rosiglitazone -0.046 | [6] -0.031 | [7] 0.011 | saracatinib -0.029 | sotrastaurin 0.022 | alvocidib -0.018 | Tubastatin A -0.008 | [8] 0.028 | defactinib -0.031 | rucaparib -0.041 | [9] -0.076 | encorafenib 0.006 | [10] 0.081

BNIP2 (UniProt J3KN59)
inactive: [1] -0.081 | volasertib -0.438 | [2] -0.079 | epoxomicin -0.068 | [3] -0.04 | [4] 0.082 | [5] 0.003 | rosiglitazone 0.002 | [6] -0.108 | [7] -0.192 | saracatinib 0.033 | sotrastaurin 0.042 | alvocidib -0.174 | Tubastatin A -0.04 | [8] -0.055 | defactinib -0.025 | rucaparib 0.033 | [9] -0.101 | encorafenib -0.008 | [10] 0.014

The list goes on:

BCS1L (UniProt Q9Y276)
inactive: [1] 0.022 | volasertib 0.031 | [2] -0.003 | epoxomicin -0.003 | [3] 0.003 | [4] -0.059 | [5] -0.028 | rosiglitazone 0.021 | [6] -0.028 | [7] 0.059 | saracatinib 0.003 | sotrastaurin 0.048 | alvocidib 0.005 | Tubastatin A 0.021 | [8] -0.044 | defactinib 0.011 | rucaparib -0.016 | [9] -0.001 | encorafenib -0.022 | [10] 0.018

BICD2 isoform 2 (UniProt Q8TD16)
inactive: [1] 0.035 | volasertib -0.112 | [2] 0.08 | epoxomicin -0.004 | [3] -0.024 | [4] -0.057 | [5] 0.031 | rosiglitazone 0.069 | [6] -0.019 | [7] 0.028 | saracatinib -0.035 | sotrastaurin -0.087 | alvocidib -0.039 | Tubastatin A 0.024 | [8] 0.023 | defactinib -0.157 | rucaparib 0.008 | [9] 0.023 | encorafenib 0.022 | [10] -0.043

BPNT1 (UniProt O95861)
inactive: [1] 0.018 | volasertib 0.086 | [2] -0.005 | epoxomicin 0.036 | [3] 0.034 | [4] -0.041 | [5] -0.024 | rosiglitazone 0.009 | [6] -0.096 | [7] 0.016 | saracatinib 0.027 | sotrastaurin 0.041 | alvocidib 0.006 | Tubastatin A 0.012 | [8] 0.025 | defactinib -0.018 | rucaparib -0.033 | [9] -0.004 | encorafenib -0.035 | [10] 0.005

BRCC3 (UniProt P46736)
inactive: [1] 0.063 | volasertib 0.095 | [2] -0.048 | epoxomicin -0.081 | [3] 0.001 | [4] 0.027 | [5] -0.039 | rosiglitazone -0.011 | [6] 0.005 | [7] 0.096 | saracatinib 0.009 | sotrastaurin 0.037 | alvocidib 0.024 | Tubastatin A -0.077 | [8] -0.023 | defactinib 0.016 | rucaparib 0.01 | [9] -0.013 | encorafenib -0.004 | [10] -0.004

BANF1 (UniProt O75531)
inactive: [1] 0.041 | volasertib -0.019 | [2] -0.012 | epoxomicin 0.185 | [3] -0.019 | [4] -0.035 | [5] -0.01 | rosiglitazone 0.03 | [6] -0.068 | [7] 0.178 | saracatinib -0.047 | sotrastaurin 0.057 | alvocidib -0.032 | Tubastatin A 0.018 | [8] 0.053 | defactinib 0.066 | rucaparib -0.037 | [9] 0.057 | encorafenib -0.057 | [10] -0.007

BAG1 (UniProt Q99933)
inactive: [1] 0.037 | volasertib -0.022 | [2] 0.004 | epoxomicin -0.022 | [3] 0.017 | [4] -0.012 | [5] 0.001 | rosiglitazone -0.002 | [6] 0.025 | [7] 0.021 | saracatinib 0.051 | sotrastaurin -0.043 | alvocidib 0.005 | Tubastatin A 0.015 | [8] -0.019 | defactinib -0.031 | rucaparib -0.011 | [9] -0.024 | encorafenib 0.043 | [10] 0.06

BORCS6 (UniProt Q96GS4)
inactive: [1] -0.033 | volasertib -0.1 | [2] 0.041 | epoxomicin 0.143 | [3] 0.047 | [4] -0.108 | [5] 0.002 | rosiglitazone 0.023 | [6] -0.111 | [7] -0.176 | saracatinib 0.067 | sotrastaurin -0.053 | alvocidib -0.097 | Tubastatin A -0.01 | [8] -0.098 | defactinib -0.022 | rucaparib -0.043 | [9] -0.028 | encorafenib -0.017 | [10] -0.018

BCAT1 (UniProt P54687)
inactive: [1] -0.005 | volasertib 0.045 | [2] -0.058 | epoxomicin -0.027 | [3] -0.031 | [4] -0.029 | [5] -0.008 | rosiglitazone 0.012 | [6] -0.056 | [7] -0.051 | saracatinib -0.012 | sotrastaurin 0.046 | alvocidib -0.014 | Tubastatin A 0.007 | [8] -0.037 | defactinib -0.037 | rucaparib -0.052 | [9] -0.043 | encorafenib 0.011 | [10] 0.026

B3GNT2 (UniProt Q9NY97)
inactive: [1] -0.164 | volasertib -0.196 | [2] 0.133 | epoxomicin 0.04 | [3] 0.013 | [4] 0.03 | [5] -0.023 | rosiglitazone 0.039 | [6] -0.104 | [7] -0.021 | saracatinib -0.007 | sotrastaurin -0.099 | alvocidib -0.074 | Tubastatin A 0.118 | [8] -0.08 | defactinib -0.019 | rucaparib 0.034 | [9] 0.009 | encorafenib 0.102 | [10] 0.027

BIRC2 (UniProt Q13490)
inactive: [1] -0.027 | volasertib -0.094 | [2] 0.011 | epoxomicin 0.02 | [3] -0.017 | [4] -0.036 | [5] 0.023 | rosiglitazone 0.091 | [6] 0.035 | [7] -0.108 | saracatinib 0.036 | sotrastaurin 0.028 | alvocidib -0.134 | Tubastatin A -0.002 | [8] 0.018 | defactinib -0.049 | rucaparib 0.003 | [9] 0.035 | encorafenib 0.007 | [10] 0.039

BMS1 (UniProt Q14692)
inactive: [1] 0.114 | volasertib 0.058 | [2] 0.035 | epoxomicin -0.127 | [3] -0.044 | [4] 0.146 | [5] -0.077 | rosiglitazone -0.098 | [6] 0.235 | [7] 0.222 | saracatinib -0.11 | sotrastaurin 0.039 | alvocidib 0.155 | Tubastatin A 0.152 | [8] -0.004 | defactinib 0.192 | rucaparib 0.218 | [9] 0.112 | encorafenib 0.158 | [10] -0.035
